# Reference: PubChem BioAssay AID1508597 (Cure First, 2020)
# Assay: 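Knock-downs altering ovarian cancer cell survival with or without PARP inhibitor rucaparib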 (primary screen)
# Cell system: human ovarian carcinoma lines grown from tumours: OCI-P5x (papillary serous) and OCI-C5x (clear cell)
# Reagents: siRNA pool against human genes, 1.25 pmol siRNA per well
# Time to read-out: 72 h or 96 h, depending on the cell culture
# Challenge: rucaparib 20 µM (about IC30) or vehicle, present until read-out
# Detection: 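ATP luminescence measured at 72 or 96 h according to the culture, then normalised and expressed as percent viability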
# Scale: viability, normalised: higher = more viable cells remaining
# Active means: 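Active when normalised viability falls below 80 percent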
# Meaning of the calls: active = viability under 80%; inactive = viability 80% or more
# Shown is an unselected part of about 2,100 reagents. 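Calls flag viability under 80% in either arm, not effects specific to rucaparib; the reference for percent is not stated.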 A number with no mark means an inactive call. A reagent listed more than once was tested more than once; the source does not tell the runs apart. Reagent sequences are not shown. The record does not give: the 100% reference.
Gene,rucaparib or vehicle,cell line,technical replicate,"viability, normalised (%)"
MKNK1,Rucaparib,OCI-C5x (clear cell),1,73.4 (active)
MKNK1,Rucaparib,OCI-C5x (clear cell),2,73.2 (active)
MKNK1,Rucaparib,OCI-C5x (clear cell),3,73 (active)
MKNK1,Rucaparib,OCI-P5x (serous),1,111
MKNK1,Rucaparib,OCI-P5x (serous),2,95.4
MKNK1,Rucaparib,OCI-P5x (serous),3,93.3
MKNK1,Vehicle,OCI-C5x (clear cell),1,64.6 (active)
MKNK1,Vehicle,OCI-C5x (clear cell),2,69 (active)
MKNK1,Vehicle,OCI-C5x (clear cell),3,48.5 (active)
MKNK1,Vehicle,OCI-P5x (serous),1,101
MKNK1,Vehicle,OCI-P5x (serous),2,90.9
MKNK1,Vehicle,OCI-P5x (serous),3,104
AURKA,Rucaparib,OCI-C5x (clear cell),1,67.8 (active)
AURKA,Rucaparib,OCI-C5x (clear cell),1,39.3 (active)
AURKA,Rucaparib,OCI-C5x (clear cell),2,34.1 (active)
AURKA,Rucaparib,OCI-C5x (clear cell),2,47.3 (active)
AURKA,Rucaparib,OCI-C5x (clear cell),3,54.6 (active)
AURKA,Rucaparib,OCI-C5x (clear cell),3,39.8 (active)
AURKA,Rucaparib,OCI-P5x (serous),1,46.8 (active)
AURKA,Rucaparib,OCI-P5x (serous),1,99.6
AURKA,Rucaparib,OCI-P5x (serous),2,59.7 (active)
AURKA,Rucaparib,OCI-P5x (serous),2,84.2
AURKA,Rucaparib,OCI-P5x (serous),3,59.6 (active)
AURKA,Rucaparib,OCI-P5x (serous),3,81
AURKA,Vehicle,OCI-C5x (clear cell),1,46.5 (active)
AURKA,Vehicle,OCI-C5x (clear cell),1,21.4 (active)
AURKA,Vehicle,OCI-C5x (clear cell),2,44.9 (active)
AURKA,Vehicle,OCI-C5x (clear cell),2,29.4 (active)
AURKA,Vehicle,OCI-C5x (clear cell),3,30.2 (active)
AURKA,Vehicle,OCI-C5x (clear cell),3,38.6 (active)
AURKA,Vehicle,OCI-P5x (serous),1,35 (active)
AURKA,Vehicle,OCI-P5x (serous),1,57 (active)
AURKA,Vehicle,OCI-P5x (serous),2,41.7 (active)
AURKA,Vehicle,OCI-P5x (serous),2,58.5 (active)
AURKA,Vehicle,OCI-P5x (serous),3,45 (active)
AURKA,Vehicle,OCI-P5x (serous),3,47.3 (active)

The list goes on, starting with the last 6 of the part before.
Gene,rucaparib or vehicle,cell line,technical replicate,"viability, normalised (%)"
AURKA,Vehicle,OCI-P5x (serous),1,35 (active)
AURKA,Vehicle,OCI-P5x (serous),1,57 (active)
AURKA,Vehicle,OCI-P5x (serous),2,41.7 (active)
AURKA,Vehicle,OCI-P5x (serous),2,58.5 (active)
AURKA,Vehicle,OCI-P5x (serous),3,45 (active)
AURKA,Vehicle,OCI-P5x (serous),3,47.3 (active)
FOXA1,Rucaparib,OCI-C5x (clear cell),1,51.2 (active)
FOXA1,Rucaparib,OCI-C5x (clear cell),2,47.8 (active)
FOXA1,Rucaparib,OCI-C5x (clear cell),3,40.8 (active)
FOXA1,Rucaparib,OCI-P5x (serous),1,54.4 (active)
FOXA1,Rucaparib,OCI-P5x (serous),2,61.8 (active)
FOXA1,Rucaparib,OCI-P5x (serous),3,57 (active)
FOXA1,Vehicle,OCI-C5x (clear cell),1,51 (active)
FOXA1,Vehicle,OCI-C5x (clear cell),2,51.2 (active)
FOXA1,Vehicle,OCI-C5x (clear cell),3,52.7 (active)
FOXA1,Vehicle,OCI-P5x (serous),1,59.8 (active)
FOXA1,Vehicle,OCI-P5x (serous),2,39.2 (active)
FOXA1,Vehicle,OCI-P5x (serous),3,68.9 (active)
EIF4A1,Rucaparib,OCI-C5x (clear cell),1,38.1 (active)
EIF4A1,Rucaparib,OCI-C5x (clear cell),2,42.2 (active)
EIF4A1,Rucaparib,OCI-C5x (clear cell),3,46.9 (active)
EIF4A1,Rucaparib,OCI-P5x (serous),1,67.8 (active)
EIF4A1,Rucaparib,OCI-P5x (serous),2,53.1 (active)
EIF4A1,Rucaparib,OCI-P5x (serous),3,67.9 (active)
EIF4A1,Vehicle,OCI-C5x (clear cell),1,33.1 (active)
EIF4A1,Vehicle,OCI-C5x (clear cell),2,39.7 (active)
EIF4A1,Vehicle,OCI-C5x (clear cell),3,40.5 (active)
EIF4A1,Vehicle,OCI-P5x (serous),1,47.5 (active)
EIF4A1,Vehicle,OCI-P5x (serous),2,56.1 (active)
EIF4A1,Vehicle,OCI-P5x (serous),3,68.1 (active)
